Laboratory results: paper PMC2643527
Results are given in words; binding and its absence hold for the method and conditions named. For some assays here: In cells and extracts the contact can be indirect. Some binding calls cover weakened binding; strength is not graded here. Tags and fused reporters may be left off the sequences shown.

Chains of the proteins cited; added tags and fusions are not shown.
UniProt Q9QYJ3: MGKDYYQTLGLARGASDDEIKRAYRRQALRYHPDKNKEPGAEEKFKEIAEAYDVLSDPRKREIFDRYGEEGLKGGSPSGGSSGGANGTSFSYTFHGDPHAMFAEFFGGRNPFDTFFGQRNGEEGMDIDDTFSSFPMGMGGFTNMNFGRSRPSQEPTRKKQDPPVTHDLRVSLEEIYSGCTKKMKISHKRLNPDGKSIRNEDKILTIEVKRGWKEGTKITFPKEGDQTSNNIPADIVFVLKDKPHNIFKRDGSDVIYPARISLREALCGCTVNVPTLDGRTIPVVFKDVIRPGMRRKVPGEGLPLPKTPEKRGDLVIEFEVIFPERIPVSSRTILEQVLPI

T1: GST-CSPα 1-112 (rat) (UniProt P60905)
T1 sequence: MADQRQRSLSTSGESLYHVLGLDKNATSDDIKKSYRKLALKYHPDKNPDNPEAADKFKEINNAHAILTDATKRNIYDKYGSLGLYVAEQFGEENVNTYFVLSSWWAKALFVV

T2: GST-CSPα 1-198 (full length cysteine string protein alpha) (rat) (UniProt P60905)
T2 sequence: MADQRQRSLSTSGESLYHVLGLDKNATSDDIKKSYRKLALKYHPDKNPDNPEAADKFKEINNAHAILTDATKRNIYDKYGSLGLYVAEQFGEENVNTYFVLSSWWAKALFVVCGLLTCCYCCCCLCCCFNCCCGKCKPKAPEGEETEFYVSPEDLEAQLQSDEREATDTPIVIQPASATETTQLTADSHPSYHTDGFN

B1: myc-tagged rat CSPα 1-198 expressed in CAD cells (protein, UniProt P60905 1-198)
chain: T2 sequence

Tests used:
GST-CSPα 1-112 (rat) = biological target: T1, GST-CSPα 1-112 (rat); experiment: pull-down; GST-CSPα fusion proteins immobilised on glutathione beads, incubated with 110 µg detergent-solubilised CAD cell homogenate (control, heat shocked 30 min 42°C with 5 h recovery, or 2 µM geldanamycin-treated), with or without 2 mM ATP or GDP; 20 mM MOPS, 4.5 mM Mg acetate, 150 mM KCl, 0.5% Tx100, 1 hour at 37°C; Western blot; only the target purified
[1] = biological target: T2, GST-CSPα 1-198 (full length cysteine string protein alpha) (rat); experiment: as above
[2] = biological target: myc-tagged rat CSPα 1-198 expressed in CAD cells (rat) (UniProt P60905); experiment: SDS-resistant dimer band on SDS-PAGE and Western blot; CAD cells transfected with CSPα, heat shocked for 40 min at 42°C and allowed to recover for 5 hours; CSPα detected by Western
[3] = biological target: myc-tagged rat CSPα 1-198 expressed in CAD cells (rat) (UniProt P60905); experiment: SDS-resistant dimer band on SDS-PAGE and Western blot; CAD cells transfected with CSPα, not heat shocked (with or without 200 µM quercetin); 70 kDa band kept after sample buffer at 80°C for 10 min; CSPα detected by Western
[4] = biological target: myc-tagged rat CSPα 1-198 expressed in CAD cells (rat) (UniProt P60905); experiment: condition: only after heat shock (40 min at 42°C, 5 hours recovery); SDS-resistant dimer band on SDS-PAGE and Western blot; CAD cells transfected with CSPα, heat shocked for 40 min at 42°C and allowed to recover for 5 hours; CSPα detected by Western

| Molecule | binding (GST-CSPα 1-112 (rat)) | binding [1] | binding [2] | binding [3] | binding [4] |
| --- | --- | --- | --- | --- | --- |
| Hsp40 (endogenous, CAD cell homogenate) (from UniProt Q9QYJ3 1-340) | binds | binds | – | – | – |
| B1 | – | – | binds | binds | no binding |
